PubChem BioAssay AID1259308 – NCATS | 2017

Screen: 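Knock-downs that increase output of a recombinant reporter protein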 (primary screen)
System: human HEK293 embryonic kidney cells stably expressing firefly luciferase (HEK-CMV-Luc2-Hygro)
Reagent: single siRNA against human genes, 0.8 pmol siRNA per well
Timing: 72 h
Read-out: 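Luciferase light (ONE-Glo) measured on one replicate plate set and viability (CellTiter-Glo) on the other, scaled to a negative control siRNA, with robust z-scores and luciferase per cell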
Direction: total luciferase, z-score and total luciferase, % of control: higher = more reporter protein produced; luciferase per cell, z-score: higher = more reporter output per viable cell
Call rule: 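An siRNA counts as active if its total luciferase robust z-score exceeds 3; genes with two or more such siRNAs out of three were retested with fresh siRNAs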
Calls: active = raised luciferase; inactive = no rise
This is a random part of about 59,000 deposited reagents. Of all reagents, about 1,510 (2.6%) were called active. 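Calls use total luciferase alone and ignore viability, so some active siRNAs may act by altering cell number.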 Unmarked entries are inactive. Reagents against one gene are numbered here. Not all columns of the deposit are shown. No sequences are given here.

no.	gene	reagent no.	total luciferase, z-score	total luciferase, % of control	luciferase per cell, z-score
1	HOOK3 (GeneID 84376)	1	-1	62	-1.29
2	HOOK3 (GeneID 84376)	2	-0.684	68.3	-0.66
3	HOOK3 (GeneID 84376)	3	0.332	88.5	-0.0195
4	BORCS5 (GeneID 118426)	1	1.9	120	2.16
5	BORCS5 (GeneID 118426)	2	2.15	125	1.59
6	BORCS5 (GeneID 118426)	3	0.298	87.8	0.86
7	RECQL5 (GeneID 9400)	1	-0.202	77.9	0.349
8	RECQL5 (GeneID 9400)	2	0.46	91	0.84
9	RECQL5 (GeneID 9400)	3	-1.92	43.7	-1.58
10	CYSRT1 (GeneID 375791)	1	-0.286	76.2	0.529
11	CYSRT1 (GeneID 375791)	2	-0.147	79	0.667
12	CYSRT1 (GeneID 375791)	3	0.776	97.3	1.05
13	JUND (GeneID 3727)	1	-0.224	77.4	-0.172
14	JUND (GeneID 3727)	2	2.13	124	2.07
15	JUND (GeneID 3727)	3	1.87	119	1.16
16	DCAF7 (GeneID 10238)	1	1.42	110	1.06
17	DCAF7 (GeneID 10238)	2	1.33	108	1.7
18	DCAF7 (GeneID 10238)	3	1.43	110	1.19
19	OR4D2 (GeneID 124538)	1	-1.29	56.3	0.256
20	OR4D2 (GeneID 124538)	2	-0.0757	80.4	-0.157
21	OR4D2 (GeneID 124538)	3	0.333	88.5	-0.646
22	TIFAB (GeneID 497189)	1	1.35	109	-0.0316
23	TIFAB (GeneID 497189)	2	-0.339	75.1	-0.314
24	TIFAB (GeneID 497189)	3	1.56	113	0.64
25	SIGLEC1 (GeneID 6614)	1	0.143	84.7	-0.428
26	SIGLEC1 (GeneID 6614)	2	0.442	90.7	-0.135
27	SIGLEC1 (GeneID 6614)	3	1.77	117	1.25
28	CELF6 (GeneID 60677)	1	-0.681	68.3	-1.14
29	CELF6 (GeneID 60677)	2	0.466	91.1	-0.472
30	CELF6 (GeneID 60677)	3	-0.112	79.7	-0.192
31	SLC66A1LP (GeneID 152078)	1	-0.0897	80.1	-0.369
32	SLC66A1LP (GeneID 152078)	2	0.483	91.5	0.594
33	SLC66A1LP (GeneID 152078)	3	0.842	98.6	0.93
34	CCL13 (GeneID 6357)	1	-0.182	78.3	-0.542
35	CCL13 (GeneID 6357)	2	1.14	105	1.73
36	CCL13 (GeneID 6357)	3	0.692	95.6	0.679
37	OR7E24 (GeneID 26648)	1	1.38	109	0.995
38	OR7E24 (GeneID 26648)	2	0.0396	82.7	0.222
39	OR7E24 (GeneID 26648)	3	1.24	107	1.11

4 of these entries in another layout:
| gene | reagent no. | total luciferase, z-score | total luciferase, % of control | luciferase per cell, z-score |
| --- | --- | --- | --- | --- |
| CYSRT1 (GeneID 375791) | 3 | 0.776 | 97.3 | 1.05 |
| JUND (GeneID 3727) | 1 | -0.224 | 77.4 | -0.172 |
| JUND (GeneID 3727) | 2 | 2.13 | 124 | 2.07 |
| JUND (GeneID 3727) | 3 | 1.87 | 119 | 1.16 |
